# Publication PMC3776929
# These are yes or no findings as the source states them, for the method shown. In cells and extracts the contact can be indirect. Binding calls can cover weak binding; strength is not graded here.
# Target: Swr1 with an ∼400 amino acid truncation, as in the subcomplex SWR1-ΔN-Mod (S. cerevisiae)
# Test: co-IP; FLAG affinity purification of SWR1 (or a subcomplex) from S. cerevisiae, eluted with 3× FLAG peptide; SDS-PAGE (4%-12% Bis-Tris), Coomassie or SYPRO Orange stain; band intensities normalised for protein size for the stoichiometry
row,Binder,binding
1,"Swc3 (protein, UniProt P31376 1-625) MPAVLRTRSKESSIEQKPASRTRTRSRRGKRGRDDDDDDDDEESDDAYDEVGNDYDEYASRAKLATNRPFEIVAGLPASVELPNYNSSLTHPQSIKNSGVLYDSLVSSRRTWVQGEMFELYWRRPKKIVSESTPAATESPTSGTIPLIRDKMQKMCDCVMSGGPHTFKVRLFILKNDKIEQKWQDEQELKKKEKELKRKNDAEAKRLRMEERKRQQMQKKIAKEQKLQLQKENKAKQKLEQEALKLKRKEEMKKLKEQNKNKQGSPSSSMHDPRMIMNLNLMAQEDPKLNTLMETVAKGLANNSQLEEFKKFIEIAKKRSLEENPVNKRPSVTTTRPAPPSKAKDVAEDHRLNSITLVKSSKTAATEPEPKKADDENAEKQQSKEAKTTAESTQVDVKKEEEDVKEKGVKSEDTQKKEDNQVVPKRKRRKNAIKEDKDMQLTAFQQKYVQGAEIILEYLEFTHSRYYLPKKSVVEFLEDTDEIIISWIVIHNSKEIEKFKTKKIKAKLKADQKLNKEDAKPGSDVEKEVSFNPLFEADCPTPLYTPMTMKLSGIHKRFNQIIRNSVSPMEEVVKEMEKILQIGTRLSGYNLWYQLDGYDDEALSESLRFELNEWEHAMRSRRHKR",binds
2,"Bdf1 (protein, UniProt P35817 1-686) MTDITPVQNDVDVNGNNVNDDVSSNLKRPIDQGDPSNGLAEEENPANNQLHLKKARLDGDALTSSPAGLAENGIEGATLAANGENGYNATGSGAEDEQQGLKKEEGGQGTKQEDLDENSKQELPMEVPKEPAPAPPPEPDMNNLPQNPIPKHQQKHALLAIKAVKRLKDARPFLQPVDPVKLDIPFYFNYIKRPMDLSTIERKLNVGAYEVPEQITEDFNLMVNNSIKFNGPNAGISQMARNIQASFEKHMLNMPAKDAPPVIAKGRRSSAQEDAPIVIRRAQTHNGRPKRTIHPPKSKDIYPYESKKPKSKRLQQAMKFCQSVLKELMAKKHASYNYPFLEPVDPVSMNLPTYFDYVKEPMDLGTIAKKLNDWQYQTMEDFERDVRLVFKNCYTFNPDGTIVNMMGHRLEEVFNSKWADRPNLDDYDSDEDSRTQGDYDDYESEYSESDIDETIITNPAIQYLEEQLARMKVELQQLKKQELEKIRKERRLARGSKKRGKRSKGRSGSKNASSKGRRDKKNKLKTVVTYDMKRIITERINDLPTSKLERAIDIIKKSMPNISEDDEVELDLDTLDNHTILTLYNTFFRQYESSSGASNGLDGTSGVTRDASSLSPTSAGSRKRRSKALSQEEQSRQIEKIKNKLAILDSASPLSQNGSPGQIQSAAHNGFSSSSDDDVSSESEEE",no binding
3,"Arp4 (protein, UniProt P80428 1-489) MSNAALQVYGGDEVSAVVIDPGSYTTNIGYSGSDFPQSILPSVYGKYTADEGNKKIFSEQSIGIPRKDYELKPIIENGLVIDWDTAQEQWQWALQNELYLNSNSGIPALLTEPVWNSTENRKKSLEVLLEGMQFEACYLAPTSTCVSFAAGRPNCLVVDIGHDTCSVSPIVDGMTLSKSTRRNFIAGKFINHLIKKALEPKEIIPLFAIKQRKPEFIKKTFDYEVDKSLYDYANNRGFFQECKETLCHICPTKTLEETKTELSSTAKRSIESPWNEEIVFDNETRYGFAEELFLPKEDDIPANWPRSNSGVVKTWRNDYVPLKRTKPSGVNKSDKKVTPTEEKEQEAVSKSTSPAANSADTPNETGKRPLEEEKPPKENNELIGLADLVYSSIMSSDVDLRATLAHNVVLTGGTSSIPGLSDRLMTELNKILPSLKFRILTTGHTIERQYQSWLGGSILTSLGTFHQLWVGKKEYEEVGVERLLNDRFR",no binding
4,"Swc4 (protein, UniProt P53201 1-476) MSSSDIFDVLNIKQKSRSPTNGQVSVPSSSAANRPKPQVTGMQRELFNLLGENQPPVVIKSGNNFKEKMLSTSKPSPWSFVEFKANNSVTLRHWVKGSKELIGDTPKESPYSKFNQHLSIPSFTKEEYEAFMNENEGTQKSVESEKNHNENFTNEKKDESKNSWSFEEIEYLFNLCKKYDLRWFLIFDRYSYNNSRTLEDLKEKFYYTCRNYFKASDPSNPLLSSLNFSAEKEIERKKYLQRLLSRSAAEIAEEEALVVESKKFEMAAKRTLAERESLLRLLDSPHSDQTITQYLTSQGMSQLYNALLADKTRKRKHDLNIPENPWMKQQQQFAQHRQLQQLNVKKSEVKENLSPKKTKRQRQEMQTALKRKSESAYAEQLLKDFNSDERKALGVITHGEKLSPGVYLRSTKLSTFKPALQNKILAILQELSLPSRPVMPSFDVMERQEELLKKINTLIDLKKHVDKYEAGMSITK",no binding
5,"Yaf9 (protein, UniProt P53930 1-226) MAPTISKRIKTLSVSRPIIYGNTAKKMGSVKPPNAPAEHTHLWTIFVRGPQNEDISYFIKKVVFKLHDTYPNPVRSIEAPPFELTETGWGEFDINIKVYFVEEANEKVLNFYHRLRLHPYANPVPNSDNGNEQNTTDHNSKDAEVSSVYFDEIVFNEPNEEFFKILMSRPGNLLPSNKTDDCVYSKQLEQEEIDRIEIGIEKVDKEIDELKQKLENLVKQEAINGS",no binding
